{"source": "paper PMC4589239", "target": "FLAG-RXR", "assay": "co-IP; HEK293 cells transfected with wild-type or p.H229Q HA-VDR and the FLAG-tagged partner plasmid; extracts immunoprecipitated with anti-FLAG; Western blot with anti-HA and anti-FLAG", "note": "No constants are given. Whether binding was seen depends on the method and setting. Binding seen in cells or lysates may run through a third protein. Binding can be weak; no strength is given. Tags and fused reporters may be left off the sequences shown."}
{"binder": "wild-type HA-VDR (vitamin D receptor) (receptor, UniProt P11473-1 1-427) MEAMAASTSLPDPGDFDRNVPRICGVCGDRATGFHFNAMTCEGCKGFFRRSMKRKALFTCPFNGDCRITKDNRRHCQACRLKRCVDIGMMKEFILTDEEVQRKREMILKRKEEEALKDSLRPKLSEEQQRIIAILLDAHHKTYDPTYSDFCQFRPPVRVNDGGGSHPSRPNSRHTPSFSGDSSSSCSDHCITSSDMMDSSSFSNLDLSEEDSDDPSVTLELSQLSMLPHLADLVSYSIQKVIGFAKMIPGFRDLTSEDQIVLLKSSAIEVIMLRSNESFTMDDMSWTCGNQDYKYRVSDVTKAGHSLELIEPLIKFQVGLKKLNLHEEEHVLLMAICIVSPDRPGVQDAALIEAIQDRLSNTLQTYIRCRHPPPGSHLLYAKMIQKLADLRSLNEEHSKQYRCLSFQPECSMKLTPLVLEVFGNEIS", "values": [{"measurement": "binding", "result": "binds"}]}
